Experimental data from PubChem BioAssay AID504834 (National Center for Advancing Translational Sciences (NCATS), 2011).
Screen size: about 320,000 compounds; about 22,000 (6.9%) were called active. This list was built around the results that the source calls inconclusive (neither active nor inactive); the mix of calls is not that of the screen. Calls follow the shape of the dose curve; as a rule, active = well fitted inhibition curve with a large enough effect; inconclusive = small, poorly fitted or top-dose-only effect, or another doubt; inactive = no such curve, though single readings can be large or run the other way. Potencies of inconclusive entries are doubtful fits and often do not repeat.

experiment: Primary qHTS for delayed death inhibitors of the malarial parasite plastid, 96 hour incubation; conditions: P. falciparum luciferase reporter growth; series mostly up to 28.7 µM; activity change, negative = inhibition: at the top concentration
Outline: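 Erythrocytes infected with luciferase-expressing P. falciparum were dispensed at 2% hematocrit and 0.05% parasitemia (final), then incubated with compounds 96 hours at 37 C in 5% CO2. Luminescence after detection reagent addition reported growth.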
% is scaled to controls: 0 for no effect and ±100 for the full control effect; potency is read from the fitted curve at half-maximal effect.

SMILES	Potency	activity change, negative = inhibition
COc1ccc2oc(C(=O)OCC(=O)N(CCC#N)c3ccccc3)c(C)c2c1	inconclusive: 18.5 µM [inhibitor, single point]	–
CCCN(CC1CC1)C(=O)CCc1nnc(C(OC)c2ccccc2)o1 (configuration not stated)	inconclusive: 18.5 µM [inhibitor, single point]	–
CCc1nc(Nc2ccccc2OC)c2oc3ccccc3c2n1	inconclusive: 18.5 µM [inhibitor, single point]	–
CCn1c(N2CCN(S(=O)(=O)c3ccccc3C(F)(F)F)CC2)nc2ccccc21	inconclusive: 18.5 µM [inhibitor, single point]	–
CN(C)c1ccc(/C=C2/C(=O)NC(=O)N(CCc3ccc(F)cc3)C2=O)cc1	inconclusive: 2.94 µM [inhibitor, single point]	–
Cc1cc(C=C2C(=O)c3ccccc3C2=O)c(C)n1C	active: 4.65 µM	–
COc1ccc(CN2CCN(C(=O)c3ccc(CNS(=O)(=O)c4ccc(C)cc4)cc3)CC2)c(OC)c1OC	–	inactive: -2.36%
CN1C(=O)C(O)(CC(=O)c2cccnc2)c2ccccc21 (configuration not stated)	inconclusive: 11.7 µM [inhibitor, partial curve]	–
COc1cccc(Nc2nnc(SCC3CCCCO3)s2)c1 (configuration not stated)	inconclusive: 0.0657 µM [inhibitor, full curve, poor fit]	–
CCC1Cc2c(nc(N)c3c(N)nc(N4CCCCC4)c(C#N)c23)O1 (configuration not stated)	inconclusive: 9.28 µM [inhibitor, partial curve]	–
C=CCN(CC(=O)NCC1CCCO1)C(=O)CCC(=O)Nc1cc(C)on1 (configuration not stated)	inconclusive: 2.33 µM [inhibitor, partial curve, poor fit]	–
CSc1nc(-c2ccccc2)nc(NC(C)=O)c1C(C)=O	inconclusive: 7.38 µM [inhibitor, partial curve]	–
CCNc1ccc(C(=O)Nc2ccc3nc(C)sc3c2)cc1[N+](=O)[O-]	inconclusive: 18.5 µM [inhibitor, single point]	–
COC(=O)CN1C(=O)C(O)(CC(=O)c2ccccc2)c2ccccc21 (configuration not stated)	inconclusive: 18.5 µM [inhibitor, single point]	–
Cc1cc(Nc2ccccc2F)n2nc(C)nc2n1	inconclusive: 18.5 µM [inhibitor, single point]	–
COc1ccc(N2C(=O)C3CCCN3C2c2cc(OC)c(OC)c(OC)c2)cc1 (configuration not stated)	inconclusive: 18.5 µM [inhibitor, partial curve, poor fit]	–
CCCCC(=O)Nc1nc(C)c(-c2csc(Nc3cc(OC)ccc3OC)n2)s1	inconclusive: 3.29 µM [inhibitor, full curve, poor fit]	–

Arranged by SMILES length (largest number first): some entries from above
SMILES	Potency	activity change, negative = inhibition
COc1ccc(CN2CCN(C(=O)c3ccc(CNS(=O)(=O)c4ccc(C)cc4)cc3)CC2)c(OC)c1OC	–	inactive: -2.36%
CCC1Cc2c(nc(N)c3c(N)nc(N4CCCCC4)c(C#N)c23)O1 (configuration not stated)	inconclusive: 9.28 µM [inhibitor, partial curve]	–
Cc1cc(C=C2C(=O)c3ccccc3C2=O)c(C)n1C	active: 4.65 µM	–
